Not every detail of the peptide structures is certain; ends, links or a residue may be inferred. No end group written: not given here.
Assays:
Sprague-Dawley rats [1] = format: in vivo, rat; conditions: first pMCAO study; 0.3-3.0 nM/g i.v. 1 h after pMCAO; 24 h; hyperthermic unfasted rats
Protocol: (§1) The peptides were prepared daily from lyophilized powder by dissolving them in normal saline to the final desired concentration. They were administered intravenously via a slow (4-5 min) injection by individuals blinded to the treatment group.
(§2) Experiments were performed in male adult Sprague-Dawley rats weighing 250-300 g (Charles River Laboratory, Canada). All procedures conformed to guidelines established by the Canadian Council on Animal Care and with the approval of the University Health Network animal care committee. All animals were housed in groups of 1-2 animals in cages with free access to food and water and in rooms having an ambient temperature of 20±1° C. and 12:12 hr light/dark cycle.
Each animal was weighed and then anesthesia was induced. For the permanent pial vessel occlusion model, rats were anesthetized with ketamine (100 mg/kg), acepromazine (2 mg/kg), and xylazine (50 mg/kg), supplemented with one third the initial dose as required. For the two permanent middle cerebral artery occlusion (pMCAO) studies, anesthesia was induced with 3.5% halothane in a mixture of nitrous oxide and oxygen (Vol. 2:1) and maintained with 0.8% halothane in the mixture. Rats were endotracheally intubated and mechanically ventilated (60 strokes/min, tidal volume of […]). A rectal temperature probe was inserted. Polyethylene catheters (PE-50) were introduced into the left femoral artery and vein for blood pressure recording, blood sampling, and drug injection. Mean arterial blood pressure was measured with the use of an indwelling femoral arterial catheter connected to a pressure transducer and was recorded continuously. Serial measurements were made of arterial blood gases, pH, and blood glucose.
The left middle cerebral artery was occluded by the intraluminal suture method described by Longa (1989). In brief, the left common carotid artery (CCA) was exposed through a midline neck incision and was dissected free from surrounding nerves and fascia, from its bifurcation to the base of the skull. The occipital artery branches of the external carotid artery (ECA) were then isolated, and these branches were dissected and coagulated. The ECA was dissected further distally and coagulated along with the terminal lingual and maxillary artery branches, which were then divided. The internal carotid artery (ICA) was isolated and carefully separated from the adjacent vagus nerve, and the pterygopalatine artery was ligated close to its origin. The tip of a 4-cm length of 3-0 monofilament nylon suture (Harvard Apparatus) was rounded by burning to achieve a tip diameter of 0.33-0.36 mm and tip length of 0.5-0.6 mm and coated with poly-L-lysine (Belayev et al., 1996). […]

Sprague-Dawley rats [2] = format: in vivo, rat; conditions: pial vessel occlusion; 3 nMole/g i.v. 1 h after occlusion
Protocol: as §1, §2
Each animal was weighed and then anesthesia was induced. For the permanent pial vessel occlusion model, rats were anesthetized with ketamine (100 mg/kg), acepromazine (2 mg/kg), and xylazine (50 mg/kg), supplemented with one third the initial dose as required. For the two permanent middle cerebral artery occlusion (pMCAO) studies, anesthesia was induced with 3.5% halothane in a mixture of nitrous oxide and oxygen (Vol. 2:1) and maintained with 0.8% halothane in the mixture. […] Mean arterial blood pressure was measured with the use of an indwelling femoral arterial catheter connected to a pressure transducer and was recorded continuously. […]

Sequence	reduction of cortical infarct volume (Sprague-Dawley rats [1])	reduction of total (hemispheric) infarct volume (Sprague-Dawley rats [1])	reduction of infarcts (Sprague-Dawley rats [2])
YGRKKRRQRRRKLSSIESDV [Tat-NR2B9c(SDV)]	~45%	≤ 40%	about 60%
YGRKKRRQRRRKLSSIETDV [Tat-NR2B9c(TDV)]	40-45%	~35%	–

Reference: patent US8685925B2, “Method and compositions for treating stroke with fever” (Nono Inc., priority 2006, dated 2014)
